# According to the supplement of paper PMC12067093, “Discovery and optimisation of a covalent ligand for TRIM25 and its application to targeted protein ubiquitination” (Chemical Science, 2025):
# By UniProt entry, the sequences of proteins in these tests, tags left out. Where a name states a change or a piece, a line headed by the entry shows the natural chain unless it says otherwise.
# UniProt Q9BU76: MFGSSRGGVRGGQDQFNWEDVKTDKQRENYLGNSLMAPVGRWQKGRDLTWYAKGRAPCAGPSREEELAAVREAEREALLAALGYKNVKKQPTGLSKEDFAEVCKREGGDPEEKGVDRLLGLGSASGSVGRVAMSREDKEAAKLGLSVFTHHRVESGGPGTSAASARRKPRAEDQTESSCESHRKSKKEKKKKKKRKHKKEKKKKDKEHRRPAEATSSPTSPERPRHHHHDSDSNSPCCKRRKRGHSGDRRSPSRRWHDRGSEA
# UniProt Q14149: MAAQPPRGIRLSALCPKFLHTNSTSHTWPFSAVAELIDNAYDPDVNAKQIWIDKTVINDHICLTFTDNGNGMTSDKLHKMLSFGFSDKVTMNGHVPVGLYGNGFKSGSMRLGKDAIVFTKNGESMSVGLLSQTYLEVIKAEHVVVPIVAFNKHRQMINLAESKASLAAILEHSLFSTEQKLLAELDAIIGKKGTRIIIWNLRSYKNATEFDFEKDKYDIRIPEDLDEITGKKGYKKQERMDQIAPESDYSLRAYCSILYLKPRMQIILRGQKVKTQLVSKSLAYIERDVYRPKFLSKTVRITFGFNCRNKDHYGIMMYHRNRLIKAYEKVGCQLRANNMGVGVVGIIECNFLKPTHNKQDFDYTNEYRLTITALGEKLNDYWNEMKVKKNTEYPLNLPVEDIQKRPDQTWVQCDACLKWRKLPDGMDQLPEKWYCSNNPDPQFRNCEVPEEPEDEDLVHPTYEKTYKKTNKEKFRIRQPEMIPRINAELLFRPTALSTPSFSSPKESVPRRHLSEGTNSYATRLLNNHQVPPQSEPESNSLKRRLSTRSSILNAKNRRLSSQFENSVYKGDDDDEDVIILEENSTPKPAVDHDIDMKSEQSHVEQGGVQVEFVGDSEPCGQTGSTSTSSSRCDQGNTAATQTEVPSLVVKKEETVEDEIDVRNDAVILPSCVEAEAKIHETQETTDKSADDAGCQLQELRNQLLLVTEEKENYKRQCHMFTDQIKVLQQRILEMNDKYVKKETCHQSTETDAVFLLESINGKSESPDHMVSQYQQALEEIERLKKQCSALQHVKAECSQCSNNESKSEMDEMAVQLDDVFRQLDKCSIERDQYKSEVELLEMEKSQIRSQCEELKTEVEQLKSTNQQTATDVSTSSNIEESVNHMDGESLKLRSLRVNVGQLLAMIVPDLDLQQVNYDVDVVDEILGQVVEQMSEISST
# UniProt Q96T76: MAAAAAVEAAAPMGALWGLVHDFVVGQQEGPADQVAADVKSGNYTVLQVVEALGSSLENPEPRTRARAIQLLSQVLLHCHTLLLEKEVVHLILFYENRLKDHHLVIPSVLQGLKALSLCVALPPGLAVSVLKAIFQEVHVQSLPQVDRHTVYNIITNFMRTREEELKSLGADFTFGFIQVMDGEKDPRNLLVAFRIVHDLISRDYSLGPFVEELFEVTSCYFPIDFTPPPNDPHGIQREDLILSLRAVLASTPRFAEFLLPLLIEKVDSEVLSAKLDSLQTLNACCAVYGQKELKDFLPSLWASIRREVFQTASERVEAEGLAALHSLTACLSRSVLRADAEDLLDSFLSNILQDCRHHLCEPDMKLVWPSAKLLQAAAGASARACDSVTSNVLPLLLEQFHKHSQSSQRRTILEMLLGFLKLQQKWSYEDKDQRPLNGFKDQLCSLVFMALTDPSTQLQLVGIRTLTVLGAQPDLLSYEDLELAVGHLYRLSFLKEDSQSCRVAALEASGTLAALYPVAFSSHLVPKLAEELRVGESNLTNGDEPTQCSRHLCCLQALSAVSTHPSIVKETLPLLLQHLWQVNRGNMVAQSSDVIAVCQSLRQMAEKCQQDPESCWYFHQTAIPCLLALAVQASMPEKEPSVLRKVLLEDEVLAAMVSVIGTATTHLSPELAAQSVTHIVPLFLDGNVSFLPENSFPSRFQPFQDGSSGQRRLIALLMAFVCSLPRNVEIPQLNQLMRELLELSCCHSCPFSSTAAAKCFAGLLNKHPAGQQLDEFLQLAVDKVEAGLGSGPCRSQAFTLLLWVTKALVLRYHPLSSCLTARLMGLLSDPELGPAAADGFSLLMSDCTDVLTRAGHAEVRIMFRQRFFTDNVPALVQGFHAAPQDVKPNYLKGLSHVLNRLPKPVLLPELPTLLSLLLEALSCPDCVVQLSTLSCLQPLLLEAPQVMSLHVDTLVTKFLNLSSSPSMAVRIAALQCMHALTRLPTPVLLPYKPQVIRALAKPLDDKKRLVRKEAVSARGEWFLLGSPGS
# UniProt Q00013: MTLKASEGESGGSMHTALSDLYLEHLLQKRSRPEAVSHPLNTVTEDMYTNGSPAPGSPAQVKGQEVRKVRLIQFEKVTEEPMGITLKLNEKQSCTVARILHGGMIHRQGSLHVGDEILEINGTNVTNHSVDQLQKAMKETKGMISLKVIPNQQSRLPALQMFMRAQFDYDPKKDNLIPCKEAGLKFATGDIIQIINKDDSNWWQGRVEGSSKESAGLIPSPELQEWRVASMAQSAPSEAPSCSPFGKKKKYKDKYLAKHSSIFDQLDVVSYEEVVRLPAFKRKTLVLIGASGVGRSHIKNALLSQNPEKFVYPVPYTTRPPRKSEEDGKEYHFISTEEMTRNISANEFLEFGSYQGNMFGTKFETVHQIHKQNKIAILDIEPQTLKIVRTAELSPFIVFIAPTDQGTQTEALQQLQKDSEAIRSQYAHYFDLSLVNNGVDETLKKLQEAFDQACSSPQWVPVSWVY
# UniProt Q9NYP9: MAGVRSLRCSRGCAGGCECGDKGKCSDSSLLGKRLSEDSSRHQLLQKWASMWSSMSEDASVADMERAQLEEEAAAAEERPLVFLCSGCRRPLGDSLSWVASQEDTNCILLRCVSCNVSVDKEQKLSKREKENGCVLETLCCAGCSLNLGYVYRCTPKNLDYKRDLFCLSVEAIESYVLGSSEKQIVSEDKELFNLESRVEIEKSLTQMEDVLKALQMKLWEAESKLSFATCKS
# UniProt Q9NXC5: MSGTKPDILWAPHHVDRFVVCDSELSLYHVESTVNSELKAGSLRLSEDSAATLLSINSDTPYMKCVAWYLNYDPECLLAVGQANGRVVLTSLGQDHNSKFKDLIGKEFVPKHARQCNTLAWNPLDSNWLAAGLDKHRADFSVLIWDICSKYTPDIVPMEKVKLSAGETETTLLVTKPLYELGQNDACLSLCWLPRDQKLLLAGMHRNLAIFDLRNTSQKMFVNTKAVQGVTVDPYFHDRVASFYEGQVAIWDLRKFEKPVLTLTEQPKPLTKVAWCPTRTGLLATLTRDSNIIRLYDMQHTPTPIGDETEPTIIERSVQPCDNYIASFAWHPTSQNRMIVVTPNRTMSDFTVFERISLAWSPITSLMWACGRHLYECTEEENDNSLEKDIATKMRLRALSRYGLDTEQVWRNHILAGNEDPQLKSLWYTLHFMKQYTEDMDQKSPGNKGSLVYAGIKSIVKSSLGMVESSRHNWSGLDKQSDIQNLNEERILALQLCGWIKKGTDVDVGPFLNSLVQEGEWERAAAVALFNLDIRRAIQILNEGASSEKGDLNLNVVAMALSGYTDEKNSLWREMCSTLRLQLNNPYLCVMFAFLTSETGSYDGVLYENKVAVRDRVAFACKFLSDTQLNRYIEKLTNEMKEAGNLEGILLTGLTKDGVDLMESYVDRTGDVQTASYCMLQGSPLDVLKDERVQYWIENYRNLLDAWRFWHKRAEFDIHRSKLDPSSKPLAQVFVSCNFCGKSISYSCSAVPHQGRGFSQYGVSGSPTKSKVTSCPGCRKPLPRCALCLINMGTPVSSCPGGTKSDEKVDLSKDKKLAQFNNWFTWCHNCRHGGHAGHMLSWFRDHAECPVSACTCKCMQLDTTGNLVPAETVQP
# UniProt A9UHW6: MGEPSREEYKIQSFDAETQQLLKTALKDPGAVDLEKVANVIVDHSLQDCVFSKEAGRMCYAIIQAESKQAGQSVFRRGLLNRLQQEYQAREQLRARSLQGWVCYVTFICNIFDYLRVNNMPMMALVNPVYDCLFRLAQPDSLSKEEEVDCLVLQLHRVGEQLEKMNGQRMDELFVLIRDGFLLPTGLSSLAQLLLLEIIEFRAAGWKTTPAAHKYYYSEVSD
# UniProt Q9UBG0: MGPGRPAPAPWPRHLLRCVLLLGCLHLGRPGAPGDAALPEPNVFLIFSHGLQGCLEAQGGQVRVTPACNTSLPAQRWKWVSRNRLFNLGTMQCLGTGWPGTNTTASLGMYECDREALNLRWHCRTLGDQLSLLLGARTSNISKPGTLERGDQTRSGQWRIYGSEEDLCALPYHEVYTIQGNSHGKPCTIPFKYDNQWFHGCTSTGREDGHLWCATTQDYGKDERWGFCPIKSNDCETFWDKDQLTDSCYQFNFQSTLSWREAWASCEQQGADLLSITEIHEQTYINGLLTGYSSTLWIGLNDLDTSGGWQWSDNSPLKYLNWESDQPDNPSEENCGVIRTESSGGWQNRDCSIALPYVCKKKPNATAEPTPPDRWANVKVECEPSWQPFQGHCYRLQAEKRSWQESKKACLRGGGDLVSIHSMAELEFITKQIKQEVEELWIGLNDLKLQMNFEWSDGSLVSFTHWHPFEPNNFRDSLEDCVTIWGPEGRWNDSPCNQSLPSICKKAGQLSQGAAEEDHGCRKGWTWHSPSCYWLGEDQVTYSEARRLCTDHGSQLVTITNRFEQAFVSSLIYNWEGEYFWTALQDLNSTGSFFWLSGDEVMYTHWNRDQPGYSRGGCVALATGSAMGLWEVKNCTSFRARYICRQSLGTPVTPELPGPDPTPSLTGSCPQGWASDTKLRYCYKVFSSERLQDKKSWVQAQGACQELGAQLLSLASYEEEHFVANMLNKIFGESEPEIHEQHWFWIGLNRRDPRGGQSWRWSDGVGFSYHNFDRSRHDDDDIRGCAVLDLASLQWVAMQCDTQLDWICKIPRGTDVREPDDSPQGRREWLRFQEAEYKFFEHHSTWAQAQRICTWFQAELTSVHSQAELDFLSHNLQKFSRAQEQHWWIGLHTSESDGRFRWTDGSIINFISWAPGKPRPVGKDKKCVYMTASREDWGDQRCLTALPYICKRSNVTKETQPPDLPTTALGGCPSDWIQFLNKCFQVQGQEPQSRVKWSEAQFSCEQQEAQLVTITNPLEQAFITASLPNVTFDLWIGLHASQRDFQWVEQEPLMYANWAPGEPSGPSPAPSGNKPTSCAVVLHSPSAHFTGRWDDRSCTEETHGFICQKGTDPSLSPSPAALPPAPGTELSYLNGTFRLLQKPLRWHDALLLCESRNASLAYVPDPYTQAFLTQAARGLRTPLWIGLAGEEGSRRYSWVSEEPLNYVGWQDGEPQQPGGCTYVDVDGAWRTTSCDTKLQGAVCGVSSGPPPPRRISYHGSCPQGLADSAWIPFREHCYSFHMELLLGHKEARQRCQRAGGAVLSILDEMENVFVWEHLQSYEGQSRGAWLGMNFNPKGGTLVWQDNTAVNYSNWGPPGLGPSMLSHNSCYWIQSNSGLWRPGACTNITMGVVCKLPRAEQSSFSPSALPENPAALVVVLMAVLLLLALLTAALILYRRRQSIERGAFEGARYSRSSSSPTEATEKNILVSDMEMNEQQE
# UniProt Q9HC36: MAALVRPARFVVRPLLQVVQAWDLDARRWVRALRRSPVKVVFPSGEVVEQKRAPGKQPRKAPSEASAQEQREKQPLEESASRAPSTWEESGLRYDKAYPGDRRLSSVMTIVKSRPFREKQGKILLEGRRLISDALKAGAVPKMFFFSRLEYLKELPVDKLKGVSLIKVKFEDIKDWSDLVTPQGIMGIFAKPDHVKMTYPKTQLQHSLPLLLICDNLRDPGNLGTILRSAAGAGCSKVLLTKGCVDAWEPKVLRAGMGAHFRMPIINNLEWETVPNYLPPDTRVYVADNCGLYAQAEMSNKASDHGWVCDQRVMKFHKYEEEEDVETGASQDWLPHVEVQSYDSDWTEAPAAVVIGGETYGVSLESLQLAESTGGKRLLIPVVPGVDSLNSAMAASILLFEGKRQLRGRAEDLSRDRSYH
# The other results are listed elsewhere or left out.
# Compound: CC1Cc2ccccc2N1C(=O)C1CCCN(C1)C(=O)CCl (mixture of isomers) [TRIM25 ligand 11 (diastereomer mixture)]
# Assay: probe-labelled cysteine peptide fold change vs DMSO (competition) (log2 fold change); higher = less target engagement (more negative = stronger competition)
# Conditions: THP-1, incubation time: 4 h
# 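Further: competitive chemoproteomic profiling in live THP-1 cells with an iodoacetamide desthiobiotin (IA-DTB) probe, comparing probe-labelled peptide intensities in compound-treated cells against DMSO-treated controls.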
Target,probe-labelled cysteine peptide fold change (10 µM),probe-labelled cysteine peptide fold change (50 µM)
MRPL37_Q9BZE1_153_NHIENQDECVLNVISHAR (UniProt Q9BZE1),0.0209,0.139
MMTAG2_Q9BU76_58_APCAGPSREEELAAVR (UniProt Q9BU76),-0.104,-0.251
MORC3_Q14149_797+800_AECSQCSNNESK (UniProt Q14149),-0.0151,0.0457
MMS19_Q96T76_760_CFAGLLNK (UniProt Q96T76),-0.0555,0.03
MMTAG2_Q9BU76_179_AEDQTESSCESHRK (UniProt Q9BU76),0.0799,-0.12
MPP1_Q00013_242_VASMAQSAPSEAPSCSPFGK (UniProt Q00013),-0.172,-0.3
MIS18A_Q9NYP9_231_LSFATCK (UniProt Q9NYP9),0.0205,-0.0549
MIOS_Q9NXC5_321_SVQPCDNYIASFAWHPTSQNR (UniProt Q9NXC5),0.11,-0.43
MIF4GD_A9UHW6_150_LAQPDSLSKEEEVDCLVLQLHR (UniProt A9UHW6),-0.152,0.0168
MRC2_Q9UBG0_532_GWTWHSPSCYWLGEDQVTYSEAR (UniProt Q9UBG0),0.235,0.09
MRM3_Q9HC36_309_ASDHGWVCDQR (UniProt Q9HC36),0.135,-0.1
MIB2_Q96AX9_969_ITCPICIDSHIR (UniProt Q96AX9),-0.0725,0.16
MKLN1_Q9UL63_128_HKIDEQMFPCR (UniProt Q9UL63),-0.0802,0.0349
MRPL14_Q6P1L8_90_ALIVGHCMPGPR (UniProt Q6P1L8),-0.355,-0.293

# Another view of some results above.
Target | probe-labelled cysteine peptide fold change (10 µM) | probe-labelled cysteine peptide fold change (50 µM)
MORC3_Q14149_797+800_AECSQCSNNESK (UniProt Q14149) | -0.0151 | 0.0457
MMS19_Q96T76_760_CFAGLLNK (UniProt Q96T76) | -0.0555 | 0.03
